Assay results: patent US20140303228A1, “Biomarkers for Amyotrophic Lateral Sclerosis and Methods Using the Same” (METABOLON, INC., priority 2011, published 2014)

Legend:
Set-up in all cases: species or system human
[1] = Plasma metabolite levels of ALS subjects over time, month 1 vs. month 12 (Table 15); details: month 1 vs month 12 after screening, 37 patients, matched-pairs T-test, positive = increase as disease progressed
[2] = Metabolomic profiling of blood plasma samples, MND vs. symptom mimic disease subjects (Table 13); details: 200 MND subjects vs 73 symptom mimic disease patients, Wilcoxon FDR < 0.15
[3] = Metabolomic profiling of blood plasma samples, ALS vs. symptom mimic disease subjects (Tables 5, 9); details: for % Change in ALS: blood plasma, ALS mean (172 subjects) vs symptom mimic disease mean (73 subjects), positive = increase in ALS, T-test; for Direction of change in ALS: plasma, ALS patients relative to symptom mimic disease patients, Random Forest and/or Wilcoxon (FDR < 0.15)

Compound	% Change with disease progression [1]	Direction of change in MND [2]	% Change in ALS [3]	Direction of change in ALS [3]
CCCCCCCCCCCCC/C=C/[C@@H](O)[C@H](COP(=O)([O-])OCC[N+](C)(C)C)NC(=O)CCCCCCCCCCCCCCC [palmitoyl sphingomyelin]	−3%	Higher	11%	Higher
CC[C@H](O)C(=O)O [2-hydroxybutyrate (AHB), 2-hydroxybutyrate]		Higher	19%	Higher
O=C(O)CCCCCCCCCCCCCCCCC(=O)O [octadecanedioate]		Higher	25%	Higher
CN(CC(=O)O)C(=N)N [creatine]		Higher	22%	Higher
C=CCCCCCCCCC(=O)O [10-undecenoate (11:1n1), 10-undecenoate]		Higher	16%	Higher
Cn1c(=O)[nH]c(=O)c2[nH]cnc21 [3-methylxanthine]		Lower	−58%	Lower
C[C@]12CCC(=O)C=C1CC[C@@H]1[C@@H]2C(=O)C[C@@]2(C)[C@H]1CC[C@]2(O)C(=O)CO [cortisone]		Higher	14%	Higher
O=C(O)CNCC(=O)O [iminodiacetate (IDA), iminodiacetate]		Higher	16%	Higher
